Measured values published in the supplement of paper PMC6411743.
± gives the standard deviation of the averaged measurements. The list shows a part of the results.

Biological target: T1, DOHH (UniProt Q9BU89)
T1 sequence (whole entry): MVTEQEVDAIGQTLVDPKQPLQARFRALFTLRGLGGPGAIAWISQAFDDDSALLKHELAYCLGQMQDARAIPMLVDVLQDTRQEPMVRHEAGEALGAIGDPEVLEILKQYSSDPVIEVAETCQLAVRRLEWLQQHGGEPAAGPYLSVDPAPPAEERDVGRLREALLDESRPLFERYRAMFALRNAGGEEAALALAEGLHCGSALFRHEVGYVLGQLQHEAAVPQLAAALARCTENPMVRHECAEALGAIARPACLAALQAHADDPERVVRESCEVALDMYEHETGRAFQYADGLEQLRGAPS
Assay: NP40-soluble protein abundance relative to vehicle (solubility fold change) (ratio); higher = more soluble protein in presence of GTP
Method: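 Solubility proteome profiling in Jurkat crude lysate. Lysate was treated with Mg-GTP (0.1-10 mM) for 10 min at room temperature and 3 min at 37 °C, then solubilised with 0.8% NP40 and benzonase, followed by ultracentrifugation. Proteins were quantified by TMT10 LC-MS/MS; the value is the NP40-soluble abundance relative to the NP40-processed vehicle, from 3 independent experiments.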

SMILES: Nc1nc2c(ncn2[C@@H]2O[C@H](COP(=O)(O)OP(=O)(O)OP(=O)(O)O)[C@@H](O)[C@H]2O)c(=O)[nH]1 [guanosine triphosphate]
- NP40-soluble protein abundance (concentration: 0.1mM): 0.975 ± 0.066
- NP40-soluble protein abundance (concentration: 0.5mM): 0.905 ± 0.03
- NP40-soluble protein abundance (concentration: 1mM): 1.03 ± 0.062
- NP40-soluble protein abundance (concentration: 2mM): 1.01 ± 0.033
- NP40-soluble protein abundance (concentration: 4mM): 1.01 ± 0.023
- NP40-soluble protein abundance (concentration: 6mM): 1.01 ± 0.014
- NP40-soluble protein abundance (concentration: 8mM): 0.959 ± 0.063
- NP40-soluble protein abundance (concentration: 10mM): 0.973 ± 0.066
